Source: paper doi:10.1101/2024.11.01.621520
Results are given in words; binding and its absence hold for the method and conditions named. In cells and extracts the contact can be indirect. These calls come from enrichment with a bait or labelling near it, and not all partners need be listed.

Amino acid sequences for entries named in this document (tags omitted). Residues count along the entry.
UniProt P35222: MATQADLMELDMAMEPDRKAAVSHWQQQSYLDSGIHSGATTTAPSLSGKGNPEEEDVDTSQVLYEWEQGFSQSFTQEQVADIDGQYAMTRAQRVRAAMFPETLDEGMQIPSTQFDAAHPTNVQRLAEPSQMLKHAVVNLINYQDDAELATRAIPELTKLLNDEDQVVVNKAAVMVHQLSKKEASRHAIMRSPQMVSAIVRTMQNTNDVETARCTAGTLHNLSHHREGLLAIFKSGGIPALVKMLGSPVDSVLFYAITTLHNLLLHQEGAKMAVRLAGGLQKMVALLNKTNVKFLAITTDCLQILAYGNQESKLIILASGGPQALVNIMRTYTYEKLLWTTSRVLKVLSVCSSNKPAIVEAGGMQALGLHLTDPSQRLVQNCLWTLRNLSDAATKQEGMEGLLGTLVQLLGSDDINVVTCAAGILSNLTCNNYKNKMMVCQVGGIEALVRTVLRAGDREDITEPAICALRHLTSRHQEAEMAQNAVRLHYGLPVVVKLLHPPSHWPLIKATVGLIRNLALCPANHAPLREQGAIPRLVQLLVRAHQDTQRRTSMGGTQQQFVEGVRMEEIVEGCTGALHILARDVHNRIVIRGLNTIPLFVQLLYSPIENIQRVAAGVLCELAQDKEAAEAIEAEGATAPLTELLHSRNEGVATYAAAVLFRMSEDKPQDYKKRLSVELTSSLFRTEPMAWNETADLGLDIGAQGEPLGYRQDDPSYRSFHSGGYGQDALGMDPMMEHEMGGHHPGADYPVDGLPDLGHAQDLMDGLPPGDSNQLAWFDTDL
UniProt Q13283: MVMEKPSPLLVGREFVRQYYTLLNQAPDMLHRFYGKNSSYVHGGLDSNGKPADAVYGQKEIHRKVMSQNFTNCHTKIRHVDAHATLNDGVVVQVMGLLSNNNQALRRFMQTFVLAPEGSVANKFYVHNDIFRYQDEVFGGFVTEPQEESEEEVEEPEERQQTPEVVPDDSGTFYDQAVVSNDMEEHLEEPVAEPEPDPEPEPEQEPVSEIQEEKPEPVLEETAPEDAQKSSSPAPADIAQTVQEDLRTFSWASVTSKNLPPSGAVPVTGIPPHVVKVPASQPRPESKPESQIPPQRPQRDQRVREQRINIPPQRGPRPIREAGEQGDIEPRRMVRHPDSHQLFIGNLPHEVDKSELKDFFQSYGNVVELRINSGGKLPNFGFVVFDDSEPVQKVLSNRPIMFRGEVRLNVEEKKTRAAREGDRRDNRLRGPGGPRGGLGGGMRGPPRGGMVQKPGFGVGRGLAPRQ
UniProt P24593, residues 21-272: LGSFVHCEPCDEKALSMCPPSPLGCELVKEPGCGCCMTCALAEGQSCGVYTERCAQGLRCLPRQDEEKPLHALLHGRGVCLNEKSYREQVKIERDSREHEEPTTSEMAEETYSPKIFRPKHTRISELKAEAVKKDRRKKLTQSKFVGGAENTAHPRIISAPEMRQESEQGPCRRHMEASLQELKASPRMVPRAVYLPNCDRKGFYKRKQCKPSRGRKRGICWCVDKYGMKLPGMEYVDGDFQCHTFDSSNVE

Experiments:
[1] = biological target: androgen receptor (human (endogenous in MCF7Aro-LetR and MCF7)) (UniProt P10275); experiment: affinity purification with mass spectrometry
[2] = biological target: T1, androgen receptor (human (endogenous in MCF7Aro-LetR and MCF7)), P10275; experiment: affinity purification with mass spectrometry; conditions: remark: other sources report otherwise
T1 chain: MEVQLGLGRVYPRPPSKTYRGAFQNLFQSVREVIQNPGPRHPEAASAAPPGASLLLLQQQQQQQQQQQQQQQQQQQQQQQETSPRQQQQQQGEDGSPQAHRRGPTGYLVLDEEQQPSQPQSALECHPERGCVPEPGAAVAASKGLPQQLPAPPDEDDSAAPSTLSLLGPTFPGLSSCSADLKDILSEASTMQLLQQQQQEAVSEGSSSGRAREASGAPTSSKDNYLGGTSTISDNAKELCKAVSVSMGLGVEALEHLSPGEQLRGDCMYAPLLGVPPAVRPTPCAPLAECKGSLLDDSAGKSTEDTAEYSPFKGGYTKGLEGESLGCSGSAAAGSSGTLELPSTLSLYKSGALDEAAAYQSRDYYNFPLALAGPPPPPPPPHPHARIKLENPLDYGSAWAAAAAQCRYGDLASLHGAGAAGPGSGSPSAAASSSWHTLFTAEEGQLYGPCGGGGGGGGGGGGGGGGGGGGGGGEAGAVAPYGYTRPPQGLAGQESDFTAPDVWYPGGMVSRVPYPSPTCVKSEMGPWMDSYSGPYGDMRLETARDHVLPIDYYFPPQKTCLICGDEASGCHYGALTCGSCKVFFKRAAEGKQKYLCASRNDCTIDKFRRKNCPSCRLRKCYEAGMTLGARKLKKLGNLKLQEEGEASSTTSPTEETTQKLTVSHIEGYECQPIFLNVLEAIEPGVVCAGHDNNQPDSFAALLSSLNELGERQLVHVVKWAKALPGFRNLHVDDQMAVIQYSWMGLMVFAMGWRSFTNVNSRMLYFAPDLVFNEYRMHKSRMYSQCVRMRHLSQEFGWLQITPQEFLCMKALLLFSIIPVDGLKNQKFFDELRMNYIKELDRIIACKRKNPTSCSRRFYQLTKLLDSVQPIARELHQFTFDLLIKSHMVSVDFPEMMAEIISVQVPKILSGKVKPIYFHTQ

Catenin beta-1 (from UniProt P35222 1-781)
binding [1]: binds

G3BP1 (from UniProt Q13283 1-466)
binding [1]: binds

Insulin-like growth factor-binding protein 5 (from UniProt P24593 21-272)
binding [1]: binds

B1: E3 ubiquitin-protein ligase RING 2, Q99496 1-336 (protein)
chain: MSQAVQTNGTQPLSKTWELSLYELQRTPQEAITDGLEIVVSPRSLHSELMCPICLDMLKNTMTTKECLHRFCADCIITALRSGNKECPTCRKKLVSKRSLRPDPNFDALISKIYPSRDEYEAHQERVLARINKHNNQQALSHSIEEGLKIQAMNRLQRGKKQQIENGSGAEDNGDSSHCSNASTHSNQEAGPSNKRTKTSDDSGLELDNNNAAMAIDPVMDGASEIELVFRPHPTLMEKDDSAQTRYIKTSGNATVDHLSKYLAVRLALEELRSKGESNQMNLDTASEKQYTIYIATASGQFTVLNGSFSLELVSEKYWKVNKPMELYYAPTKEHK
binding [2]: binds
